Source: US20200165612
Construct, isoform or probe ends are uncertain for at least one entry. Where cells or extracts were used, other partners may take part.

Amino acid sequences for entries named in this document (tags omitted).
UniProt A0A2K5X4G5, entry or part of it: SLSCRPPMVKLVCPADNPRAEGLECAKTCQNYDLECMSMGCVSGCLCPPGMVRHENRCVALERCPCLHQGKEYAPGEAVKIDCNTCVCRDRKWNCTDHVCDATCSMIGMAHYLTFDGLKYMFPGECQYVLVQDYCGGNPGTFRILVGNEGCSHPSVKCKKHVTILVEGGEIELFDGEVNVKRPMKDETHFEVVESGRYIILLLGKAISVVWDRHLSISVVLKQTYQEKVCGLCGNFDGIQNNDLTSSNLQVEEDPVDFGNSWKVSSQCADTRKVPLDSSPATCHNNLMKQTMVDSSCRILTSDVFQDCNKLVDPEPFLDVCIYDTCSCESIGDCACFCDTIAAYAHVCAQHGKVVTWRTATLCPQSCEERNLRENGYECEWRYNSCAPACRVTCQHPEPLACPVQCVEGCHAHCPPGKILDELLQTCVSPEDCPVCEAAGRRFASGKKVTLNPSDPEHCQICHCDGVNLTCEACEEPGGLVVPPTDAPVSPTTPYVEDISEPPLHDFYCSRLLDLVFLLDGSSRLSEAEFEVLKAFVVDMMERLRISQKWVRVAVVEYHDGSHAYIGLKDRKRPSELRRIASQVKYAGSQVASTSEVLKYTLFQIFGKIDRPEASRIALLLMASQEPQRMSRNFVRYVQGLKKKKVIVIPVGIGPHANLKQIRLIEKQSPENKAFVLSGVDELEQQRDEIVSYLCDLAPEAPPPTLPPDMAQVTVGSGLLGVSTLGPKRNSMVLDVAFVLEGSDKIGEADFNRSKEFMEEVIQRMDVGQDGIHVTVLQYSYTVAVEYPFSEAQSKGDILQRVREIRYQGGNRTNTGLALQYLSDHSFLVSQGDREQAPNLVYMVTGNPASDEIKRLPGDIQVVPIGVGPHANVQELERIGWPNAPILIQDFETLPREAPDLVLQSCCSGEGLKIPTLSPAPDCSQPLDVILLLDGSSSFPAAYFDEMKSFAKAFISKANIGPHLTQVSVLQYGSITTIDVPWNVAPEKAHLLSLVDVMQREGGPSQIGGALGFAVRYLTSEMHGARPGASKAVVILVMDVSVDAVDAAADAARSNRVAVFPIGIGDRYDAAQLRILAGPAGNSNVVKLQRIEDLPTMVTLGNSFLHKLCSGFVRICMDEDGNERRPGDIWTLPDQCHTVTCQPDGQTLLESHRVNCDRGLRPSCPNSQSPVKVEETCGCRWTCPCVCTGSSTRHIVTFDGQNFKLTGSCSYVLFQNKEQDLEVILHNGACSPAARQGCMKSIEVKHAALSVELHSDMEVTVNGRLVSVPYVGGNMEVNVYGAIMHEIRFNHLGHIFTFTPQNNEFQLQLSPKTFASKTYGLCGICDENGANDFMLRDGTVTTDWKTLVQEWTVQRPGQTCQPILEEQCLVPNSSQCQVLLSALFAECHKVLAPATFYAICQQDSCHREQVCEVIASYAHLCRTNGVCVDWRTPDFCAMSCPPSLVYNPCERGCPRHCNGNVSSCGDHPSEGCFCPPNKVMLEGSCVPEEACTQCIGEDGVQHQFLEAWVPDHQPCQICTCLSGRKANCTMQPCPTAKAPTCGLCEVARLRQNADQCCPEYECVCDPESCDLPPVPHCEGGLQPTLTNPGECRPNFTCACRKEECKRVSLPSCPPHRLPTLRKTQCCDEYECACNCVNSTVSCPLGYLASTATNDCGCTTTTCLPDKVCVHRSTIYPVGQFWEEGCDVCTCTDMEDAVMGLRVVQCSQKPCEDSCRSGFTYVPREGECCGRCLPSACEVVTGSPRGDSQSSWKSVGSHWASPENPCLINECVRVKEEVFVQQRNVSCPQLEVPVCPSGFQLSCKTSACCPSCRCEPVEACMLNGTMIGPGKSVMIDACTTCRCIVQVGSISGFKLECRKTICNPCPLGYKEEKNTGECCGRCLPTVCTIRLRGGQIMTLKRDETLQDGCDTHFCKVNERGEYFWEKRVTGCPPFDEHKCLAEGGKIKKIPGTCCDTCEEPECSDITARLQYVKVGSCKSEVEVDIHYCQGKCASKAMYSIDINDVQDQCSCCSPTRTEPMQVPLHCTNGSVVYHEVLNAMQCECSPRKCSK

Columns and labels:
[1] = biological target: von Willebrand factor (VWF) (Homo sapiens) (UniProt P04275); assay: inhibition of the protein; conditions: protein in an extract, protein details: native VWF in human plasma / whole blood; for functional effect of the aptamer (AUC at 100 nM (baseline 87)): ristocetin-induced whole blood aggregation (Multiplate), 37 C
[2] = biological target: von Willebrand factor (VWF) (Macaca fascicularis (cynomolgus monkey)) (UniProt A0A2K5X4G5); assay: inhibition of the protein; conditions: as BT-100, 3' idT, 5' branched 40K PEG; PFA-200 CADP closure time ED50, cynomolgus samples, n=16, 95% CI 0.135-3.599; mean of individual ED50 0.576 ug/ml; protein in an extract; variant of BT-100

## GGGACCUAAGACACAUGUCCC [ARC15105]
[1]; PEGylated, 3' idT (terminal t), up to 16-fold higher concentration than BT-100 needed for 90% inhibition
  functional effect of the aptamer (AUC at 100 nM (baseline 87)): 56

## GCCAGGGACCUAAGACACAUGUCCCUGGC [BT-100]
[1]; 2'-OMe (claimed sugar modification), 3' idT (terminal t of SEQ ID NO: 2), 5' NH2 via C6 linker, AUC 5 at 25 nM before arterial block, about 90% inhibition at 25-50 nM
  functional effect of the aptamer (AUC at 100 nM (baseline 87)): 2

## GCCAGGGACCUAAGACACAUGUCCCUGGC [BT-200]
[2]
  EC50: 0.697 µg/mL
[1]; as BT-100, 3' idT, 5' branched 40K PEG, PFA-200 CADP closure time ED50, human samples, n=14, 95% CI 0.086-0.408, mean of individual ED50 0.158 ug/ml, variant of BT-100
  EC50: 0.187 µg/mL
